{"source": "PubChem BioAssay AID1224828 (NIAID, 2016)", "test": "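Find genes required for NF-kappaB p65 moving into the nucleus after LPS in mouse macrophages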 (primary screen)", "cell system": "mouse RAW264.7 G9 macrophage reporter cells (GFP-p65, Tnf promoter-mCherry)", "reagent": "siRNA pool against mouse genes, 100 nM", "duration": "2 days siRNA transfection, then 40 min LPS before fixation", "treatment": "LPS (Salmonella minnesota R595) at 10 ng/ml", "measured": "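Imaged p65 nuclear translocation ratio, normalised to the plate median, converted to robust z-scores and averaged across two replicates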", "direction": "p65 translocation robust z-score: higher = more nuclear NF-kappaB p65 after LPS than the plate median; nuclear/cytoplasmic p65 ratio: higher = more nuclear NF-kappaB p65", "hit rule": "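Called active when z exceeds 3.3 or falls under -1.56 (median of Tlr4 controls), giving activity score of at least 50; no calls for control wells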", "calls": "active = hit (p65 shift raised or lowered); inactive = no clear change", "note": "In all, the deposit lists about 17,000 reagents; shown is a random part of them. 762 of them (4.5%) were called active. 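Active calls include both raised and lowered p65 entry, mostly lowered; wells with fewer than 50 cells lack a z-score.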 The raw values are shown without normalisation. Unmarked entries are inactive. Reagent sequences are not shown."}
The opening 2 records as a preview:
{"Target gene": "Dpep1", "p65 translocation robust z-score": 0.92, "nuclear/cytoplasmic p65 ratio, rep 1": 1.64, "nuclear/cytoplasmic p65 ratio, rep 2": 1.46, "low cell count flag": "enough cells to score"}
{"Target gene": "Cab39", "p65 translocation robust z-score": -0.26, "nuclear/cytoplasmic p65 ratio, rep 1": 1.49, "nuclear/cytoplasmic p65 ratio, rep 2": 1.81, "low cell count flag": "enough cells to score"}

Main list, from the first entry:
{"Target gene": "Dpep1", "p65 translocation robust z-score": 0.92, "nuclear/cytoplasmic p65 ratio, rep 1": 1.64, "nuclear/cytoplasmic p65 ratio, rep 2": 1.46, "low cell count flag": "enough cells to score"}
{"Target gene": "Cab39", "p65 translocation robust z-score": -0.26, "nuclear/cytoplasmic p65 ratio, rep 1": 1.49, "nuclear/cytoplasmic p65 ratio, rep 2": 1.81, "low cell count flag": "enough cells to score"}
{"Target gene": "Btc", "nuclear/cytoplasmic p65 ratio, rep 1": 1.59, "nuclear/cytoplasmic p65 ratio, rep 2": 1.29, "low cell count flag": "fewer than 50 cells per well; well left out of scoring"}
{"Target gene": "Or5d36", "p65 translocation robust z-score": "-2.59 (active)", "nuclear/cytoplasmic p65 ratio, rep 1": 1.32, "nuclear/cytoplasmic p65 ratio, rep 2": 1.14, "low cell count flag": "enough cells to score"}
{"Target gene": "Ccdc38", "p65 translocation robust z-score": 0.27, "nuclear/cytoplasmic p65 ratio, rep 1": 1.4, "nuclear/cytoplasmic p65 ratio, rep 2": 1.45, "low cell count flag": "enough cells to score"}
{"Target gene": "Zup1", "p65 translocation robust z-score": -0.4, "nuclear/cytoplasmic p65 ratio, rep 1": 1.39, "nuclear/cytoplasmic p65 ratio, rep 2": 1.37, "low cell count flag": "enough cells to score"}
{"Target gene": "A630023P12Rik", "p65 translocation robust z-score": 0.65, "nuclear/cytoplasmic p65 ratio, rep 1": 1.37, "nuclear/cytoplasmic p65 ratio, rep 2": 1.72, "low cell count flag": "enough cells to score"}
{"Target gene": "Arl13b", "p65 translocation robust z-score": 0.43, "nuclear/cytoplasmic p65 ratio, rep 1": 1.5, "nuclear/cytoplasmic p65 ratio, rep 2": 1.57, "low cell count flag": "enough cells to score"}
{"Target gene": "Cul1", "p65 translocation robust z-score": -0.73, "nuclear/cytoplasmic p65 ratio, rep 1": 1.3, "nuclear/cytoplasmic p65 ratio, rep 2": 1.27, "low cell count flag": "enough cells to score"}
{"Target gene": "Nmur1", "p65 translocation robust z-score": -1.07, "nuclear/cytoplasmic p65 ratio, rep 1": 1.29, "nuclear/cytoplasmic p65 ratio, rep 2": 1.49, "low cell count flag": "enough cells to score"}
{"Target gene": "Dzip1l", "nuclear/cytoplasmic p65 ratio, rep 1": 1.64, "nuclear/cytoplasmic p65 ratio, rep 2": 1.99, "low cell count flag": "fewer than 50 cells per well; well left out of scoring"}
{"Target gene": "Gjb5", "p65 translocation robust z-score": -0.08, "nuclear/cytoplasmic p65 ratio, rep 1": 1.38, "nuclear/cytoplasmic p65 ratio, rep 2": 1.4, "low cell count flag": "enough cells to score"}
